The record followed here is PMC11514458.

Chains of the proteins cited; added tags and fusions are not shown. A line that says so, or that is headed by a name, gives the form on record, which may keep a tag or linker.
UniProt Q06609, whole entry K133R: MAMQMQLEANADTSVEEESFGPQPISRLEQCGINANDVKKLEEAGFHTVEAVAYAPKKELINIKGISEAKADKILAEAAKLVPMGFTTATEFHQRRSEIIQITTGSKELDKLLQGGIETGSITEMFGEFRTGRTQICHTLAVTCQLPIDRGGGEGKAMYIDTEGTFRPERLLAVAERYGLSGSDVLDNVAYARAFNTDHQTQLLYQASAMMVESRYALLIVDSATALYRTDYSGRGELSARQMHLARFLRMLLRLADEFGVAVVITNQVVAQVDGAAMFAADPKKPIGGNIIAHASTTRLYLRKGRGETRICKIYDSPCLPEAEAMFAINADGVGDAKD
UniProt Q06609, whole entry K133A: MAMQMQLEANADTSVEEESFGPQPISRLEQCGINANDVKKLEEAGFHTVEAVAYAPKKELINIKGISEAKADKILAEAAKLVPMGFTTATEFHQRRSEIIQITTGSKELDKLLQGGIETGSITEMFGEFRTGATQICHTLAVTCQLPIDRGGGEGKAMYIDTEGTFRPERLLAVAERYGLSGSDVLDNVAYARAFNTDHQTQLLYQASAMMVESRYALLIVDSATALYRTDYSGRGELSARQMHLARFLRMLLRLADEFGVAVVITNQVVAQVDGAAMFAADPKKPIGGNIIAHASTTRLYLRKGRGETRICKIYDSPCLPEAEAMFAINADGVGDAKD
BCDX2 complex (human), one chain, as listed by the source, chain 2 of 4: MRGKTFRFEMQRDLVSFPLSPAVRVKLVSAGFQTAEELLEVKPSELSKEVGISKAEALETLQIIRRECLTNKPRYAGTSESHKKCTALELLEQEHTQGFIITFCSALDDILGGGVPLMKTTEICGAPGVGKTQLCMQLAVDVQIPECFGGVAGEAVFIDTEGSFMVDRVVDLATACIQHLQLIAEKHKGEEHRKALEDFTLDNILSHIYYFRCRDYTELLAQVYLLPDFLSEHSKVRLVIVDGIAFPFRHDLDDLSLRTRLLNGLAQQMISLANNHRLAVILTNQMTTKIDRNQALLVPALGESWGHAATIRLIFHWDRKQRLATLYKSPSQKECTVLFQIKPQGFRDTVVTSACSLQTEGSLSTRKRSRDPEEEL
BCDX2 complex (human), one chain, as listed by the source, chain 1 of 4: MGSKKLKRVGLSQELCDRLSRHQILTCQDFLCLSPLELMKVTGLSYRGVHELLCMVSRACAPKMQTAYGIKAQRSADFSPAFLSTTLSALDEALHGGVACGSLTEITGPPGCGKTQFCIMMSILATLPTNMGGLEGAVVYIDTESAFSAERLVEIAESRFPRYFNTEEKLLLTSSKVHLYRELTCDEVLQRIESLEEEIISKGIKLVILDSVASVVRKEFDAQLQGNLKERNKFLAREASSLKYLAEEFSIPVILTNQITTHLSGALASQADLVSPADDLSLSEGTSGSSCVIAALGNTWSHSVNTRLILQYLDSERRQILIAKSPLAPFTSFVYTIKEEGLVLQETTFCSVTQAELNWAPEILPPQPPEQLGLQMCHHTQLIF
BCDX2 complex (human), one chain, as listed by the source, chain 4 of 4: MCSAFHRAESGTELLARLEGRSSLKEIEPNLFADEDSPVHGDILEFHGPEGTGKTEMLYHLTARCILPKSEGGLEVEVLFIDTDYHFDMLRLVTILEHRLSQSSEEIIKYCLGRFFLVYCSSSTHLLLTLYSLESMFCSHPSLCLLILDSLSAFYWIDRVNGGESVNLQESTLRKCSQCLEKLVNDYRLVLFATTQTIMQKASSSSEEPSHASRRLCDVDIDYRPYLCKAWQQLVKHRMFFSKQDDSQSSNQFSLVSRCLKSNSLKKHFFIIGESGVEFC
BCDX2 complex (human), one chain, as listed by the source, chain 3 of 4: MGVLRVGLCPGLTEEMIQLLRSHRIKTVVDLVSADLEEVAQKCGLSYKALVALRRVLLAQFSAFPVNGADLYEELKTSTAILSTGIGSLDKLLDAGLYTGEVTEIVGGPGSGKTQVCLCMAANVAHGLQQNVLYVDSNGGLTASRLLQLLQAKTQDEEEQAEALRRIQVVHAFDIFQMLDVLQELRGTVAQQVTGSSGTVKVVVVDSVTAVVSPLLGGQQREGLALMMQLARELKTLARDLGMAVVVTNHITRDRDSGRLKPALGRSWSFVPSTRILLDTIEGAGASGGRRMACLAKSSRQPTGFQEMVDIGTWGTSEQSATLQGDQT

Construct, isoform or probe ends are uncertain for at least one entry. For some assays here: No signal at the amounts used counts as a negative. For some assays here: At least one verdict rests on a figure or table, not on a statement of the authors. For some assays here: A weaker result is weaker than the reference pair of the same experiment.

The subject of one data set is miniBRCA2-DSS1 (human). In words: EMSA. As to conditions: weaker than BCDX2; EMSA: 20 mM Tris-HCl pH 7.5, 2 mM MgCl2, 2 mM ATP, 37 C, 20 nM DNA, glutaraldehyde fixation; recombinant protein; label: 5' FITC; single-stranded DNA.
Data set [1] has as its system BCDX2 complex (human). In words: EMSA. The note with it: EMSA: 20 mM Tris-HCl pH 7.5, 2 mM MgCl2, 2 mM ATP, 37 C, 20 nM DNA, glutaraldehyde fixation, recombinant protein, protein details: Strep-tag and His-tag (XRCC2 N-terminal His).
The next data set has as its system BC complex (human). Briefly: EMSA. The note with it: EMSA: 20 mM Tris-HCl pH 7.5, 2 mM MgCl2, 2 mM ATP, 37 C, 20 nM DNA, glutaraldehyde fixation, recombinant protein, protein details: Strep-tag.
The test system of a further data set is DX2 complex (human). Briefly: EMSA. The note with it: EMSA: 20 mM Tris-HCl pH 7.5, 2 mM MgCl2, 2 mM ATP, 37 C, 20 nM DNA, glutaraldehyde fixation, recombinant protein, protein details: His-tag.
The test system of data set [2] is BCDX2 complex (human). In words: BLI. As to conditions: ATP, Mg2+; BLI: 50 mM Tris-HCl pH 7.5, 2 mM ATP, 50 mM KCl, 5 mM MgCl2, 0.05% Tween 20, room temperature; recombinant protein; protein details: Strep-tag and His-tag (XRCC2 N-terminal His); label: 5' biotin; single-stranded DNA.
Another data set concerns RAD51 + BCDX2 complex. Briefly: BLI. The note with it: BLI: 50 mM Tris-HCl pH 7.5, 2 mM ATP, 50 mM KCl, 5 mM MgCl2, 0.05% Tween 20, room temperature, recombinant protein, protein details: Strep-tag and His-tag (XRCC2 N-terminal His), label: 5' biotin, single-stranded DNA.
A further data set deals with RAD51 K133R (UniProt Q06609). In words: stopped-flow fluorescence. As to conditions: reduced cooperativity, re-evaluated earlier data (ref 33); stopped-flow: 25 mM Tris-HCl pH 7.5, 5 mM MgCl2, 50 mM KCl, 2 mM ATP, 0.5 mM EDTA, 10% glycerol …; recombinant protein; label: Cy3 at 3' or 5'; single-stranded DNA.
The target in the next data set is RAD51 K133A (UniProt Q06609). In words: stopped-flow fluorescence. The note with it: reduced cooperativity, re-evaluated earlier data (ref 33); stopped-flow: 25 mM Tris-HCl pH 7.5, 5 mM MgCl2, 50 mM KCl, 2 mM ATP, 0.5 mM EDTA, 10% glycerol …; recombinant protein; label: Cy3 at 3' or 5'; single-stranded DNA.
The mark [3] stands for this setting: BCDX2 facilitates RAD51 binding.

In the case of “GTACAAAGCTCTGGCATGATACTATGCGGC [ssDNA 30mer]”, the binding result in the data set on miniBRCA2-DSS1 (human) is recorded as “binds more weakly”. Consider “GACGCTGCCGAATTCTACCAGTGCCTTGCTATTTTTTTTTTTTTTTTTTTTTTTTT / ATCTGTTGTAATCGTCAAGCTTTATGCCGTT / GAACGGCATAAAGCTTGACGATTACAACAGATCATGGAGCTGTCTAGAGGATCCGACTATCGA / ATCGATAGTCGGATCCTCTAGACAGCTCCATGTAGCAAGGCACTGGTAGAATTCGGCAGCGT [20ntRVF]”, for which, in the data set with BCDX2 complex (human) [1], the binding result is recorded as “binds”. As to “AGCTACCATGCCTGCACGAATTAAGCAATTCGTAATCATGGTCATAGCT / AATTCGTGCAGGCATGGTAGCT [3' overhang (3'-OH)]”, the binding result with BCDX2 complex (human) [1] (weaker than Y-form and flap, label: 5' FITC on strand 1) is “binds more weakly”. For the sequence “GACGCTGCCGAATTCTACCAGTGCCTTGCTA / ATCTGTTGTAATCGTCAAGCTTTATGCCGTT / GAACGGCATAAAGCTTGACGATTACAACAGATCATGGAGCTGTCTAGAGGATCCGACTATCGA / ATCGATAGTCGGATCCTCTAGACAGCTCCATGTAGCAAGGCACTGGTAGAATTCGGCAGCGT [0ntRVF (fork)]”, the binding result with BCDX2 complex (human) [1] (fork with no protruding ssDNA, label: Cy3 on strand 1) is “binds more weakly”. In the case of “TGCCGAATTCTACCAGTGCCAGTGATGGACATCTTTGCCCACGTTGACCC / TGGGTCAACGTGGGCAAAGATGTCCTAGCAATGTAATCGTCTATGACGTT / TCGGATCCTCTAGACAGCTCCATGATCACTGGCACTGGTAGAATTCGGC / CAACGTCATAGACGATTACATTGCTTCATGGAGCTGTCTAGAGGATCCGA [RVF2]”, the binding result was “no binding” in the data set with BC complex (human) (label: 5' FITC on strand 4); “no binding” in the data set with DX2 complex (human) (label: 5' FITC on strand 4); “no binding” with BCDX2 complex (human) [1] (little or no affinity, label: 5' FITC on strand 4).

Regarding GAATGTGTGTCTCAATC [ssDNA 20mer], the binding result in the data set with miniBRCA2-DSS1 (human) was “binds more weakly”. In the case of “AGCTATGACCATGATTACGAATTGCTT [ssDNA 27mer]”, the binding result with BCDX2 complex (human) [1] (weaker than flap, label: 5' FITC, single-stranded DNA) is recorded as “binds more weakly”. On to “AGCTACCATGCCTGCACGAATTAAGCAATTCGTAATCATGGTCATAGCT (double strand) [dsDNA 49mer]”, for which the binding result with BC complex (human) (label: 3' FITC) is “no binding”; in the data set on DX2 complex (human) (label: 3' FITC) it was “no binding”; in the data set with BCDX2 complex (human) [1] (little or no affinity, label: 3' FITC) it was “no binding”. Regarding “TTTTTTTTTTTTTTTTTTTTTTTTTTTTTTTTTTTTTTTTTTT [biotin-dT43]”, the binding result was “binds” in the data set with BCDX2 complex (human) [2] and “binds more weakly” in the data set on RAD51 + BCDX2 complex (BCDX2 preincubated with vanadate). In the case of TTTTTTTTTTTTTTTTTTTTTTTTT [biotin-dT25], the binding result in the data set on RAD51 + BCDX2 complex (setting [3]) is “binds”. Regarding “TTTTTTTTTTTTTTTTTTTTTTTTTTTTTTTTTTTTTTTTTTT [Cy3-dT43]”, the binding result with RAD51 K133R and with RAD51 K133A was “binds” throughout.

Regarding “CTAAGTTCGTCAGGATTCCAGCATTCTAACAGTCATAGCG [ssDNA 40mer]”, in the data set on miniBRCA2-DSS1 (human), the binding result is listed as “binds more weakly”. TTTTTTTTTTTTTTTTTTTT [biotin-dT20]: the binding result in the data set on RAD51 + BCDX2 complex (setting [3]) is “binds”. For the sequence “AAATCAATCTAAAGTATATATGAGTAAACTTGGTCTGACAGTTACCAATGCTTAATCAGTGAGGCACCTATCTCAGCGATCTGTCTATTT / AAATAGACAGATCGCTGAGATAGGTGCCTCACTGATTAAGCATTG / TATATACTTTAGATTGATTT [gapped DNA]”, the binding result with BCDX2 complex (human) [1] (weaker than Y-form and flap, label: 5' FITC on strand 2) is reported as “binds more weakly”.
